# Some of the results follow. Most values lie at the level of the controls, where differences are scatter.
# By UniProt entry, the sequences of proteins in these tests, tags left out. Where a name states a change or a piece, a line headed by the entry shows the natural chain unless it says otherwise.
# UniProt Q8C2Q3: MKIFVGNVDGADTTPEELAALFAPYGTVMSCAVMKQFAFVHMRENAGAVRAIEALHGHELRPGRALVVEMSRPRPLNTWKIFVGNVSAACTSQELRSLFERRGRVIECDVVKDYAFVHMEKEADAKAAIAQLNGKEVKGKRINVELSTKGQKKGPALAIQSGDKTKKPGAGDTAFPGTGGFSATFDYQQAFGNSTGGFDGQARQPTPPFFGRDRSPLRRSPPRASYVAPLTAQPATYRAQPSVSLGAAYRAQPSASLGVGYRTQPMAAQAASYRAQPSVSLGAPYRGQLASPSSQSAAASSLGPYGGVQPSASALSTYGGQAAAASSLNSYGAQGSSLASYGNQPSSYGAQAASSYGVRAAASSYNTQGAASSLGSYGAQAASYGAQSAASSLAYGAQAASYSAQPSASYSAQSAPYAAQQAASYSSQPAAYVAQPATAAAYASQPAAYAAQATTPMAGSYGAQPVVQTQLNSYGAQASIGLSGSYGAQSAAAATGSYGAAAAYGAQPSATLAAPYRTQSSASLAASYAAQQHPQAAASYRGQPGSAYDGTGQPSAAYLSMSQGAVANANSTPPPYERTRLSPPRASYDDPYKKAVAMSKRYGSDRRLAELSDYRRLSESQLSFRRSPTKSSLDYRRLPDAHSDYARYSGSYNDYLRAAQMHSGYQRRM
# UniProt Q8CC86: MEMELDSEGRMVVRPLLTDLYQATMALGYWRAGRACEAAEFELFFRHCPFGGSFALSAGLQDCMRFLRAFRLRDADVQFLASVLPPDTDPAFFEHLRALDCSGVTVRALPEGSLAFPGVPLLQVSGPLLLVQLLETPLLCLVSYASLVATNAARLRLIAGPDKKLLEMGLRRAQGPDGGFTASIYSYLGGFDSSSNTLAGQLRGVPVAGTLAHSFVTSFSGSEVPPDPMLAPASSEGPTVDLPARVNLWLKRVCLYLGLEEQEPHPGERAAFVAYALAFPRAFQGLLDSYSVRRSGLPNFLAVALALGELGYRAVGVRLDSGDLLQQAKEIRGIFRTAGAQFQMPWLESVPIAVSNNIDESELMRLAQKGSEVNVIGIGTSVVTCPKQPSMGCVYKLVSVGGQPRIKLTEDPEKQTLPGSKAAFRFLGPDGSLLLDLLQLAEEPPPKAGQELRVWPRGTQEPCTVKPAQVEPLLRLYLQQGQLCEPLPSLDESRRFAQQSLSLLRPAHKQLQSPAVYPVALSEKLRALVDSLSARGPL
# UniProt Q8C0E2, whole entry: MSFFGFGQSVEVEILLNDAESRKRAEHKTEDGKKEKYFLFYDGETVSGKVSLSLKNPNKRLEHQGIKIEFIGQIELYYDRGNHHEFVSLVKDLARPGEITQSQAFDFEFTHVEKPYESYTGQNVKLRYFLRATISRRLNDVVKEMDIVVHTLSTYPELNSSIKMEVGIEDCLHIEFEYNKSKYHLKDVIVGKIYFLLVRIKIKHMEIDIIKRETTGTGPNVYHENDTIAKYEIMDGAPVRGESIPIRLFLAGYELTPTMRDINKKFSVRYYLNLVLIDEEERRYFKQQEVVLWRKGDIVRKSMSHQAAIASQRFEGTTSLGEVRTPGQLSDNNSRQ
# UniProt Q8BZF8: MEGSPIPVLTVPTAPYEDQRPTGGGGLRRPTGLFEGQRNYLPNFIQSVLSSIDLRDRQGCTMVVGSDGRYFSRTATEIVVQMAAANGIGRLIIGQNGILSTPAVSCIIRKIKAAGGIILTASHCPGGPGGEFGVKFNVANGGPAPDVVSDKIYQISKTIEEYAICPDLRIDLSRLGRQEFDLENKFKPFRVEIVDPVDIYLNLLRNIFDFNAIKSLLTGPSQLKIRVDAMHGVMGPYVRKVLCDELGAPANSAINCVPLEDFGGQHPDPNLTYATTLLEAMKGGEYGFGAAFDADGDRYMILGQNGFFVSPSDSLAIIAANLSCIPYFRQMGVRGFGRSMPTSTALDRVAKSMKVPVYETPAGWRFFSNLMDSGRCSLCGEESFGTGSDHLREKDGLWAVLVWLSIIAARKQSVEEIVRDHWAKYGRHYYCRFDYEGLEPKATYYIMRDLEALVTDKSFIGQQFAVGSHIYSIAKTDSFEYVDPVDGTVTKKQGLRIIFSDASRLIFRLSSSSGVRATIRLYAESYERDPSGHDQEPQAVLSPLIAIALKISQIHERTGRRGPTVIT
# UniProt Q8BUY9, whole entry: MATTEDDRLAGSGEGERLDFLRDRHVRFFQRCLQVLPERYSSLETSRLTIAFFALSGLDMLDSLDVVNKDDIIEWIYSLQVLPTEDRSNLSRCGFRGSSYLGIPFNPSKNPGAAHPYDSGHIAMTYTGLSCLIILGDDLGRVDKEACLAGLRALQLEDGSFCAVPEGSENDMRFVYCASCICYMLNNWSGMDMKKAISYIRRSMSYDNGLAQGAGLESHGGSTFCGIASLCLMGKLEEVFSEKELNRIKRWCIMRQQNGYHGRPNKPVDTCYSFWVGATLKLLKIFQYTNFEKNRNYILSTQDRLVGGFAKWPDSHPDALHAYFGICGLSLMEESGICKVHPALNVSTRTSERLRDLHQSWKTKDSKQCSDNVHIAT
# UniProt Q8BHJ6: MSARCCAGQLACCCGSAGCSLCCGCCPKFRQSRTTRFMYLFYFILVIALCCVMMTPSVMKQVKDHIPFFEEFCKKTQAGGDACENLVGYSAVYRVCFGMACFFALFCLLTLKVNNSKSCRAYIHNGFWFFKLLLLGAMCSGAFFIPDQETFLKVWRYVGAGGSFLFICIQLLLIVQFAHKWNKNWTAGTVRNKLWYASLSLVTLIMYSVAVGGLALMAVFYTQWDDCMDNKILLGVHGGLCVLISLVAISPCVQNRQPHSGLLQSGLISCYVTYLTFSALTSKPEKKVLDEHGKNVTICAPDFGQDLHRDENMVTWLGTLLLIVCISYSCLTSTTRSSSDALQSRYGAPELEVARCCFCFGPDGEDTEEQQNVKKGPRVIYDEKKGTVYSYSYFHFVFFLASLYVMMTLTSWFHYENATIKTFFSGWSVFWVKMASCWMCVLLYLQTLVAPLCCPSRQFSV
# UniProt Q8C0Q2: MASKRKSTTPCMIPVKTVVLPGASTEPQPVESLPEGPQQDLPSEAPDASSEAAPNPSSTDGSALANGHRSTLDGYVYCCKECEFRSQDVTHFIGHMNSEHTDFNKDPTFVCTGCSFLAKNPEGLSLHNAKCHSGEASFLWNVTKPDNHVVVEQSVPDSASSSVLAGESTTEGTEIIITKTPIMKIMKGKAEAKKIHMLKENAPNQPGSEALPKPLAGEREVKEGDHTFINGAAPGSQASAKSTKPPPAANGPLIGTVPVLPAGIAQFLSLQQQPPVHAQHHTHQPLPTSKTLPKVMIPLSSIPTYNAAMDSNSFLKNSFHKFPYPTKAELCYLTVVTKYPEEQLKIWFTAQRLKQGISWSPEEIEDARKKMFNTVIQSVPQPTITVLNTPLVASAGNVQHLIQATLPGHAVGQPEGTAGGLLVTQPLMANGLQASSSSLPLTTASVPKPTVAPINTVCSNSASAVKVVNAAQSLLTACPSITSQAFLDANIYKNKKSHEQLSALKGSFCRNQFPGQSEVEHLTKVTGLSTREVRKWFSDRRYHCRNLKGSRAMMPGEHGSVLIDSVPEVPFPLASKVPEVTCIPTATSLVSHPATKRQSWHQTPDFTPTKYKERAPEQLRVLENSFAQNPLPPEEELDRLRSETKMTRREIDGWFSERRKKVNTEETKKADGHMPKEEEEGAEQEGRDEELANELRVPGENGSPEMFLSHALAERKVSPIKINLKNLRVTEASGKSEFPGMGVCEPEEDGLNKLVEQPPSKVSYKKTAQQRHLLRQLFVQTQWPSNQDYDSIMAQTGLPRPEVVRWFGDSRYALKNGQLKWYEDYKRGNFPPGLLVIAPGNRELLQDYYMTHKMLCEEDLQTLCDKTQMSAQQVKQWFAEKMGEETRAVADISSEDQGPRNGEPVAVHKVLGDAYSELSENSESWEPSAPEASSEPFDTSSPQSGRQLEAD
# UniProt Q8BLK3: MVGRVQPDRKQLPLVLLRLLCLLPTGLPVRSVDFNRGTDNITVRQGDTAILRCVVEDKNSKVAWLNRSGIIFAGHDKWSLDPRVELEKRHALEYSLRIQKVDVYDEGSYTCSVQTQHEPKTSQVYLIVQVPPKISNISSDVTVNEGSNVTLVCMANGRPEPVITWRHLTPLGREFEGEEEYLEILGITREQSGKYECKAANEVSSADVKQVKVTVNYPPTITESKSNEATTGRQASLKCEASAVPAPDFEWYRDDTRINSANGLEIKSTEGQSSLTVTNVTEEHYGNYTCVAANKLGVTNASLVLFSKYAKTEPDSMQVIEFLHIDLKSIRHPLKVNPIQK
# UniProt Q8BGY7: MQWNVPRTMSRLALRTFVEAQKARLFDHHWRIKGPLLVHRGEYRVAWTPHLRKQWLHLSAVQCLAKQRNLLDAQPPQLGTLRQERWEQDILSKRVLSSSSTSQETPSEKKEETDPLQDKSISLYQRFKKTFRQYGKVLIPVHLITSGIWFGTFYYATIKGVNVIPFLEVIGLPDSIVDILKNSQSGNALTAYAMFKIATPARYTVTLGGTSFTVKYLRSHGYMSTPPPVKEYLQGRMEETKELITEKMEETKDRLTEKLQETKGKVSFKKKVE
# UniProt Q8BHH1: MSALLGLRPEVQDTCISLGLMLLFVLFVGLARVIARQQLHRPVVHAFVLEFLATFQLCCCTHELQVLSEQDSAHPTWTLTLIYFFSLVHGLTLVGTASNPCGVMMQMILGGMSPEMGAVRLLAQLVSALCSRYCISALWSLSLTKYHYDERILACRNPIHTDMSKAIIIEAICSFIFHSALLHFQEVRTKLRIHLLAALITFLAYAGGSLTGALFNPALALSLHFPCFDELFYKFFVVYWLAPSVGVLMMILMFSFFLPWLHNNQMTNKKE
# UniProt Q8BTE0: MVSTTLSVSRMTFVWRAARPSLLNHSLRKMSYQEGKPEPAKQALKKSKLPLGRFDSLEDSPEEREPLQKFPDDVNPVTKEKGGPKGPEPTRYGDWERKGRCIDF
# UniProt Q8BY87: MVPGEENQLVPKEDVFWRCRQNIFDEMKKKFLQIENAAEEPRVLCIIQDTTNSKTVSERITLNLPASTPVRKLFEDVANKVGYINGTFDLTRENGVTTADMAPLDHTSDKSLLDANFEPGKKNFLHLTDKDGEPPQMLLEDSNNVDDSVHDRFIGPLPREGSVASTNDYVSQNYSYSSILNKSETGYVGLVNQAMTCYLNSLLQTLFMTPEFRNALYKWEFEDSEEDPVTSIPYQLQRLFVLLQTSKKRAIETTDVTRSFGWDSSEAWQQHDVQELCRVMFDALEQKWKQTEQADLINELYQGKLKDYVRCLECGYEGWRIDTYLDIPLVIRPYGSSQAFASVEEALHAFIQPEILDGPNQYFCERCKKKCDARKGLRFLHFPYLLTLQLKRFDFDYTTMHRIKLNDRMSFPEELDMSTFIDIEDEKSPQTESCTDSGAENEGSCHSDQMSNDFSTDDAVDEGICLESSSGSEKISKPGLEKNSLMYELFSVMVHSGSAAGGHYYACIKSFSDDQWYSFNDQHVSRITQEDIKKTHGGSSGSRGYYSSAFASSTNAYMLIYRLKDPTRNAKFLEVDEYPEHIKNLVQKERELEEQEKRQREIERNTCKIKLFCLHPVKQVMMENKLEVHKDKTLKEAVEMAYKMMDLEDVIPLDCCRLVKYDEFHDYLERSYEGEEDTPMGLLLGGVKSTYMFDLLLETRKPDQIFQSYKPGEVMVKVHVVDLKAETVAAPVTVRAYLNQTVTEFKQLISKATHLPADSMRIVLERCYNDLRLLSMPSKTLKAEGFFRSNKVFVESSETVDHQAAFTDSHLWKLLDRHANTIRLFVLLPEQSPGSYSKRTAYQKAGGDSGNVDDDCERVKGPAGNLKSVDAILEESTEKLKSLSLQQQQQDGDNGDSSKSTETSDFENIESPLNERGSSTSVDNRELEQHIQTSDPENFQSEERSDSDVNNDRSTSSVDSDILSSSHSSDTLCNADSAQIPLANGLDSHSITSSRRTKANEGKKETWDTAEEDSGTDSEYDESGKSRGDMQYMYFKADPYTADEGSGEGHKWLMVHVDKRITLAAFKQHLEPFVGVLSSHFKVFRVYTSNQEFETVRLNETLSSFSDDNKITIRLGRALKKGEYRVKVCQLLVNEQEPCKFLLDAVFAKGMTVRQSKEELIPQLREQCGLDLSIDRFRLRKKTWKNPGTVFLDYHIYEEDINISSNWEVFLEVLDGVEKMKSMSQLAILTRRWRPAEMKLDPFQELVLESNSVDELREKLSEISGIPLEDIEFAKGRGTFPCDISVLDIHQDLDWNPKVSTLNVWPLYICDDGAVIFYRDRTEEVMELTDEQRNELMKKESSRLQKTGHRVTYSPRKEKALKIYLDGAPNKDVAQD
# UniProt Q8BWU5: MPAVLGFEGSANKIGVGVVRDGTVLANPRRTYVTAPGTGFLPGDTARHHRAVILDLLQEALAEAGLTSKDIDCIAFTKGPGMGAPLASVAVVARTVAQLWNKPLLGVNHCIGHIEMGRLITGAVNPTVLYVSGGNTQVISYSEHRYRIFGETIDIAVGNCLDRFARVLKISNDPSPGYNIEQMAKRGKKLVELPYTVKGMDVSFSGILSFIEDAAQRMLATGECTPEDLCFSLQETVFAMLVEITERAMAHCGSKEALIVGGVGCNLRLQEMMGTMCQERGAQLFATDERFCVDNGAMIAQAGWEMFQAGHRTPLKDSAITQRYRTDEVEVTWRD
# Compound: CN[C@@H]1C[C@H]2O[C@@](C)([C@@H]1OC)n1c3ccccc3c3c4c(c5c6ccccc6n2c5c31)C(=O)NC4 [staurosporine]
# Assay: log2 fold change of pooled soluble protein (PISA), ligand vs vehicle (log2 ratio); higher = more thermally stabilized
# Conditions: ligand concentration: 20 uM; assay format: PISA pool 52.9/55.5/58.6 C
row,Target,log2 fold change of pooled soluble protein
1,UniProt Q8C0M9,0.0397
2,UniProt Q8C2Q3,0.0154
3,UniProt Q8BTZ7,-0.096
4,UniProt Q8CFA2,0.137
5,UniProt Q8CC86,-0.0233
6,UniProt Q8BPT6,-0.123
7,UniProt Q8BHG2,0.116
8,UniProt Q8C0E2,0.0518
9,UniProt Q8BIP0,-0.227
10,UniProt Q8BM75,-0.325
11,UniProt Q8BNI4,-0.294
12,UniProt Q8BTJ4,0.204
13,UniProt Q8BTX9,0.16
14,UniProt Q8BVW3,-0.066
15,UniProt Q8C196,-0.0551
16,UniProt Q8BPE4,0.044
17,UniProt Q8BYH7,0.432
18,UniProt Q8BND5,-0.154
19,UniProt Q8BZF8,-0.0585
20,UniProt Q8BYU6,-0.136
21,UniProt Q8CFX1,-0.0576
22,UniProt Q8BUK6,-0.048
23,UniProt Q8BUY9,-0.0362
24,UniProt Q8BMP6,0.107
25,UniProt Q8BYW9,0.153

row,Target,log2 fold change of pooled soluble protein
1,UniProt Q8CAA7,0.0716
2,UniProt Q8CCN5,-0.0671
3,UniProt Q8BHJ6,0.194
4,UniProt Q8CG76,-0.0622
5,UniProt Q8C5R2,0.0598
6,UniProt Q8C0J2,0.194
7,UniProt Q8BUV3,-0.0422
8,UniProt Q8BJF9,-0.0589
9,UniProt Q8BUY5,-0.0377
10,UniProt Q8C1A5,0.0627
11,UniProt Q8BWS5,0.0496
12,UniProt Q8BZB2,-0.325
13,UniProt Q8C1D8,0.21
14,UniProt Q8CAF4,-0.125
15,UniProt Q8C7G5,-0.027
16,UniProt Q8C0Y0,-0.0631
17,UniProt Q8BMD8,-0.0897
18,UniProt Q8BVQ5,0.00199
19,UniProt Q8BQU3,-0.00928
20,UniProt Q8C0Q2,0.0774
21,UniProt Q8BTW3,-0.0138
22,UniProt Q8C7H1,-0.272
23,UniProt Q8BLK3,-0.345
24,UniProt Q8BGY7,0.0141
25,UniProt Q8BWT1,0.0436

row,Target,log2 fold change of pooled soluble protein
1,UniProt Q8C181,0.0328
2,UniProt Q8C5W0,-0.0577
3,UniProt Q8C8R3,0.0729
4,UniProt Q8CBC6,0.253
5,UniProt Q8BHH1,-0.375
6,UniProt Q8BIJ6,-0.00491
7,UniProt Q8C1B1,0.232
8,UniProt Q8BK75,0.0111
9,UniProt Q8BTV2,-0.104
10,UniProt Q8CF94,0.277
11,UniProt Q8BTE0,0.117
12,UniProt Q8BY87,-0.179
13,UniProt Q8BL97,-0.126
14,UniProt Q8BHE8,-0.13
15,UniProt Q8BTE5,-0.227
16,UniProt Q8C8T8,-0.146
17,UniProt Q8BJH1,-0.0537
18,UniProt Q8BL86,0.134
19,UniProt Q8CAQ8,-0.0573
20,UniProt Q8BQ30,-0.0362
21,UniProt Q8CBC4,0.0365
22,UniProt Q8BJU2,0.313
23,UniProt Q8BWU5,0.103

# Taken from the listing (three entries):
row,Target,log2 fold change of pooled soluble protein
4,UniProt Q8CG76,-0.0622
5,UniProt Q8C5R2,0.0598
6,UniProt Q8C0J2,0.194

# Source: the supplement of paper PMC12819154, “High-throughput peptide-centric local stability assay extends protein–ligand identification to membrane proteins, tissues and bacteria” (Nature Structural & Molecular Biology, 2025)
